3 molecules from paper PMC6359284, “Identification, Characterization, and Optimization of Integrin αvβ6-Targeting Peptides from a One-Bead One-Compound (OBOC) Library: Towards the Development of Positron Emission Tomography (PET) Imaging Agents” (Molecules, 2019) can be followed below.

Chains of the proteins cited; added tags and fusions are not shown. Lines headed by an entry give the natural chain unless they say otherwise; changes in a name come on top.
UniProt P06756: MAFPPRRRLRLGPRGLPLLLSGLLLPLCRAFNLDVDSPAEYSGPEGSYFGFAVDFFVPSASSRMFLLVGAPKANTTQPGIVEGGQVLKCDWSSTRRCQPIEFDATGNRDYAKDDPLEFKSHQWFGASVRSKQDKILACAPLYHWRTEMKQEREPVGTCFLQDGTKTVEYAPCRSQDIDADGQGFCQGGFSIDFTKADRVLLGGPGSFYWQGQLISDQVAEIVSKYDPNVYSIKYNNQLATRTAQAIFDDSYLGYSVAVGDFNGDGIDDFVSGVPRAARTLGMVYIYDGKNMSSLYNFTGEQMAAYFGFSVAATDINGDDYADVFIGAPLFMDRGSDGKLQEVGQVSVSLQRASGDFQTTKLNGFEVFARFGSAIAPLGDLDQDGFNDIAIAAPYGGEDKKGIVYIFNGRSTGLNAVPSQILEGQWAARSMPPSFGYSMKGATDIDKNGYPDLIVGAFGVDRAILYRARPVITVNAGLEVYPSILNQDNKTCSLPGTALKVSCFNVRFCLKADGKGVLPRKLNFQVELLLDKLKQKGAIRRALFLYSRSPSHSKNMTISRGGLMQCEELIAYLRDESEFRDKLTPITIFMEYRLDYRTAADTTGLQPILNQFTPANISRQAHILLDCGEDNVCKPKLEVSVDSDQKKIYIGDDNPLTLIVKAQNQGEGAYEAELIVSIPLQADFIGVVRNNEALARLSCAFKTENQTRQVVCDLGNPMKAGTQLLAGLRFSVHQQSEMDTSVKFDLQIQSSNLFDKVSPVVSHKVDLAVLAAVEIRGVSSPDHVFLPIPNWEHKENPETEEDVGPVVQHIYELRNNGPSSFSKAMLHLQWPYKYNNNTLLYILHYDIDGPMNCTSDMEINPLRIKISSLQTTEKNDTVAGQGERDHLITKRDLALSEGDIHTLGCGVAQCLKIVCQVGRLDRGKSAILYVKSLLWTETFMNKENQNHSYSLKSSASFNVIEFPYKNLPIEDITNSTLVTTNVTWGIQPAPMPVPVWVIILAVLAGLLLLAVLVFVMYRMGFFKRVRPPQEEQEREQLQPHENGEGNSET

No constants are given. Whether binding was seen depends on the method and setting. Some entries that bind do so weakly or less than the wild type.

This assay addresses integrin αvβ6 on DX3puroβ6 cells (UniProt P06756). The assay can be described thus: on-bead cell binding assay; only the binder purified.
As to RGDLADLRK [peptide 3, …(FB)], the binding result is “binds”.

With RGDLRELAK [peptide 5, …(FB)], the binding result is reported as “binds”.

Consider RGDLMKLAK [peptide 2, …(FB)], for which the binding result was “binds”.
